Among the data in patent US20240018252A1 are binding values, retold here.

The chains behind the UniProt entries cited, without tags or fusion partners. Where a name states a change or a piece, a line headed by the entry shows the natural chain unless it says otherwise.
UniProt Q02223: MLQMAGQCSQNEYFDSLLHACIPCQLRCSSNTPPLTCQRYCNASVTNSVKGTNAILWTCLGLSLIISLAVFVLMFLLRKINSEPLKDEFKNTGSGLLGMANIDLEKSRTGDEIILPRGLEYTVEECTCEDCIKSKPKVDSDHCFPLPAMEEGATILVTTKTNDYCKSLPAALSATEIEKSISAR

These are yes or no findings as the source states them, for the method shown. Some binding calls cover weakened binding; strength is not graded here.

This assay deals with BCMA on BCMA-expressing tumor cells (KMS12BM, L363, MM1S and KMS12PE) (human) (UniProt Q02223). The assay can be described thus: flow cytometry on KMS12BM, L363, MM1S and KMS12PE cells, 0.5 ug antibody, Alexa Fluor 647 anti-mouse IgG; members named in paragraph 369. In general terms: Flow cytometry measures light scatter and fluorescence of single cells or particles in a stream.

B1: Combo_Rd4_0.6 nM_C29 expressed in mouse IgG2a (antibody, V domains shown)
VH: EVQLLESGGGLVQPGGSLRLSCAASGFTFSSYPMSWVRQAPGKGLEWVSAIGGSGGSLPYADSVKGRFTISRDNSKNTLYLQMNSLRAEDTAVYYCARYWPMDIWGQGTLVTVSS
VL: EIVLTQSPGTLSLSPGERATLSCRASQSVSSSYLAWYQQKPGQAPRLLMYDASIRATGIPDRFSGSGSGTDFTLTISRLEPEDFAVYYCQQYQSWPLTFGQGTKVEIK
For the molecule B1, the binding result is “binds”.
